{"source": "patent US20140038203A1", "about": "“METHODS FOR DETECTING OR PREDICTING KIDNEY DISEASE” (MUSC FOUNDATION FOR RESEARCH DEVELOPMENT, priority 2012, published 2014)"}
{"experiment": "RRT study: LC-MS/MS urinary proteomics, AKI after cardiac surgery, RRT vs No RRT", "design": "species or system human", "conditions": "direction of urinary abundance, patients who did vs did not require RRT/dialysis"}
{"molecule": "Glutaminyl-peptide cyclotransferase (protein, UniProt Q16769 29-361, looked up) Glutaminyl-peptide …: VSPSASAWPEEKNYHQPAILNSSALRQIAEGTSISEMWQNDLQPLLIERYPGSPGSYAARQHIMQRIQRLQADWVLEIDTFLSQTPYGYRSFSNIISTLNPTAKRHLVLACHYDSKYFSHWNNRVFVGATDSAVPCAMMLELARALDKKLLSLKTVSDSKPDLSLQLIFFDGEEAFLHWSPQDSLYGSRHLAAKMASTPHPPGARGTSQLHGMDLLVLLDLIGAPNPTFPNFFPNSARWFERLQAIEHELHELGLLKDHSLEGRYFQNYSYGGVIQDDHIPFLRRGVPVLHLIPSPFPEVWHTMDDNEENLDESTIDNLNKILQVFVLEYLHL", "Up or Down": "Up"}
{"molecule": "Complement C2 (protein, UniProt P06681 21-752, looked up) Complement C2: APSCPQNVNISGGTFTLSHGWAPGSLLTYSCPQGLYPSPASRLCKSSGQWQTPGATRSLSKAVCKPVRCPAPVSFENGIYTPRLGSYPVGGNVSFECEDGFILRGSPVRQCRPNGMWDGETAVCDNGAGHCPNPGISLGAVRTGFRFGHGDKVRYRCSSNLVLTGSSERECQGNGVWSGTEPICRQPYSYDFPEDVAPALGTSFSHMLGATNPTQKTKESLGRKIQIQRSGHLNLYLLLDCSQSVSENDFLIFKESASLMVDRIFSFEINVSVAIITFASEPKVLMSVLNDNSRDMTEVISSLENANYKDHENGTGTNTYAALNSVYLMMNNQMRLLGMETMAWQEIRHAIILLTDGKSNMGGSPKTAVDHIREILNINQKRNDYLDIYAIGVGKLDVDWRELNELGSKKDGERHAFILQDTKALHQVFEHMLDVSKLTDTICGVGNMSANASDQERTPWHVTIKPKSQETCRGALISDQWVLTAAHCFRDGNDHSLWRVNVGDPKSQWGKEFLIEKAVISPGFDVFAKKNQGILEFYGDDIALLKLAQKVKMSTHARPICLPCTMEANLALRRPQGSTCRDHENELLNKQSVPAHFVALNGSKLNINLKMGVEWTSCAEVVSQEKTMFPNLTDVREVVTDQFLCSGTQEDESPCKGESGGAVFLERRFRFFQVGLVSWGLYNPCLGSADKNSRKRAPRSKVPPPRDFHINLFRMQPWLRQHLGDVLNFLPL", "Up or Down": "Up"}
{"molecule": "Cystatin-S (protein, UniProt P01036 21-141, looked up) Cystatin-S: SSSKEENRIIPGGIYDADLNDEWVQRALHFAISEYNKATEDEYYRRPLQVLRAREQTFGGVNYFFDVEVGRTICTKSQPNLDTCAFHEQPELQKKQLCSFEIYEVPWEDRMSLVNSRCQEA", "Up or Down": "Up"}
{"molecule": "Di-N-acetylchitobiase (protein, UniProt Q01459 39-385, looked up) Di-N-acetylchitobiase: TDCPCPEPELCRPIRHHPDFEVFVFDVGQKTWKSYDWSQITTVATFGKYDSELMCYAHSKGARVVLKGDVSLKDIIDPAFRASWIAQKLNLAKTQYMDGINIDIEQEVNCLSPEYDALTALVKETTDSFHREIEGSQVTFDVAWSPKNIDRRCYNYTGIADACDFLFVMSYDEQSQIWSECIAAANAPYNQTLTGYNDYIKMSINPKKLVMGVPWYGYDYTCLNLSEDHVCTIAKVPFRGAPCSDAAGRQVPYKTIMKQINSSISGNLWDKDQRAPYYNYKDPAGHFHQVWYDNPQSISLKATYIQNYRLRGIGMWNANCLDYSGDAVAKQQTEEMWEVLKPKLLQR", "Up or Down": "Up"}
{"molecule": "Signal-regulatory protein beta-1 (protein, UniProt O00241 30-398, looked up) Signal-regulatory protein …: EDELQVIQPEKSVSVAAGESATLRCAMTSLIPVGPIMWFRGAGAGRELIYNQKEGHFPRVTTVSELTKRNNLDFSISISNITPADAGTYYCVKFRKGSPDDVEFKSGAGTELSVRAKPSAPVVSGPAVRATPEHTVSFTCESHGFSPRDITLKWFKNGNELSDFQTNVDPAGDSVSYSIHSTARVVLTRGDVHSQVICEIAHITLQGDPLRGTANLSEAIRVPPTLEVTQQPMRAENQANVTCQVSNFYPRGLQLTWLENGNVSRTETASTLIENKDGTYNWMSWLLVNTCAHRDDVVLTCQVEHDGQQAVSKSYALEISAHQKEHGSDITHEAALAPTAPLLVALLLGPKLLLVVGVSAIYICWKQKA", "Up or Down": "Up"}
{"molecule": "Matrix-remodeling-associated protein 8 (protein, UniProt Q9BRK3 20-442, looked up) Matrix remodeling-associated …: VLLHSGSSVPAAAGSSVVSESAVSWEAGARAVLRCQSPRMVWTQDRLHDRQRVLHWDLRGPGGGPARRLLDLYSAGEQRVYEARDRGRLELSASAFDDGNFSLLIRAVEETDAGLYTCNLHHHYCHLYESLAVRLEVTDGPPATPAYWDGEKEVLAVARGAPALLTCVNRGHVWTDRHVEEAQQVVHWDRQPPGVPHDRADRLLDLYASGERRAYGPLFLRDRVAVGADAFERGDFSLRIEPLEVADEGTYSCHLHHHYCGLHERRVFHLTVAEPHAEPPPRGSPGNGSSHSGAPGPDPTLARGHNVINVIVPESRAHFFQQLGYVLATLLLFILLLVTVLLAARRRRGGYEYSDQKSGKSKGKDVNLAEFAVAAGDQMLYRSEDIQLDYKNNILKERAELAHSPLPAKYIDLDKGFRKENCK", "Up or Down": "Up"}
{"molecule": "Cytosolic non-specific dipeptidase (protein, UniProt Q96KP4 2-475, looked up) Cytosolic non-specific …: AALTTLFKYIDENQDRYIKKLAKWVAIQSVSAWPEKRGEIRRMMEVAAADVKQLGGSVELVDIGKQKLPDGSEIPLPPILLGRLGSDPQKKTVCIYGHLDVQPAALEDGWDSEPFTLVERDGKLYGRGSTDDKGPVAGWINALEAYQKTGQEIPVNVRFCLEGMEESGSEGLDELIFARKDTFFKDVDYVCISDNYWLGKKKPCITYGLRGICYFFIEVECSNKDLHSGVYGGSVHEAMTDLILLMGSLVDKRGNILIPGINEAVAAVTEEEHKLYDDIDFDIEEFAKDVGAQILLHSHKKDILMHRWRYPSLSLHGIEGAFSGSGAKTVIPRKVVGKFSIRLVPNMTPEVVGEQVTSYLTKKFAELRSPNEFKVYMGHGGKPWVSDFSHPHYLAGRRAMKTVFGVEPDLTREGGSIPVTLTFQEATGKNVMLLPVGSADDGAHSQNEKLNRYNYIEGTKMLAAYLYEVSQLKD", "Up or Down": "Up"}
{"molecule": "Aminoacylase-1 (protein, UniProt Q03154 1-408, looked up) Aminoacylase-1: MTSKGPEEEHPSVTLFRQYLRIRTVQPKPDYGAAVAFFEETARQLGLGCQKVEVAPGYVVTVLTWPGTNPTLSSILLNSHTDVVPVFKEHWSHDPFEAFKDSEGYIYARGAQDMKCVSIQYLEAVRRLKVEGHRFPRTIHMTFVPDEEVGGHQGMELFVQRPEFHALRAGFALDEGIANPTDAFTVFYSERSPWWVRVTSTGRPGHASRFMEDTAAEKLHKVVNSILAFREKEWQRLQSNPHLKEGSVTSVNLTKLEGGVAYNVIPATMSASFDFRVAPDVDFKAFEEQLQSWCQAAGEGVTLEFAQKWMHPQVTPTDDSNPWWAAFSRVCKDMNLTLEPEIMPAATDNRYIRAVGVPALGFSPMNRTPVLLHDHDERLHEAVFLRGVDIYTRLLPALASVPALPSDS", "Up or Down": "Up"}
{"molecule": "Neprilysin (protein, UniProt P08473 2-750, looked up) Neprilysin: GKSESQMDITDINTPKPKKKQRWTPLEISLSVLVLLLTIIAVTMIALYATYDDGICKSSDCIKSAARLIQNMDATTEPCTDFFKYACGGWLKRNVIPETSSRYGNFDILRDELEVVLKDVLQEPKTEDIVAVQKAKALYRSCINESAIDSRGGEPLLKLLPDIYGWPVATENWEQKYGASWTAEKAIAQLNSKYGKKVLINLFVGTDDKNSVNHVIHIDQPRLGLPSRDYYECTGIYKEACTAYVDFMISVARLIRQEERLPIDENQLALEMNKVMELEKEIANATAKPEDRNDPMLLYNKMTLAQIQNNFSLEINGKPFSWLNFTNEIMSTVNISITNEEDVVVYAPEYLTKLKPILTKYSARDLQNLMSWRFIMDLVSSLSRTYKESRNAFRKALYGTTSETATWRRCANYVNGNMENAVGRLYVEAAFAGESKHVVEDLIAQIREVFIQTLDDLTWMDAETKKRAEEKALAIKERIGYPDDIVSNDNKLNNEYLELNYKEDEYFENIIQNLKFSQSKQLKKLREKVDKDEWISGAAVVNAFYSSGRNQIVFPAGILQPPFFSAQQSNSLNYGGIGMVIGHEITHGFDDNGRNFNKDGDLVDWWTQQSASNFKEQSQCMVYQYGNFSWDLAGGQHLNGINTLGENIADNGGLGQAYRAYQNYIKKNGEEKLLPGLDLNHKQLFFLNFAQVWCGTYRPEYAVNSIKTDVHSPGNFRIIGTLQNSAEFSEAFHCRKNSYMNPEKKCRVW", "Up or Down": "Up"}
{"molecule": "CMRF35-like molecule 1 (protein, UniProt Q8TDQ1 20-290, looked up) CMRF35-like molecule 1: TQITGPTTVNGLERGSLTVQCVYRSGWETYLKWWCRGAIWRDCKILVKTSGSEQEVKRDRVSIKDNQKNRTFTVTMEDLMKTDADTYWCGIEKTGNDLGVTVQVTIDPAPVTQEETSSSPTLTGHHLDNRHKLLKLSVLLPLIFTILLLLLVAASLLAWRMMKYQQKAAGMSPEQVLQPLEGDLCYADLTLQLAGTSPQKATTKLSSAQVDQVEVEYVTMASLPKEDISYASLTLGAEDQEPTYCNMGHLSSHLPGRGPEEPTEYSTISRP", "Up or Down": "Up"}
{"molecule": "Heparin cofactor 2 (protein, UniProt P05546 20-499, looked up) Heparin cofactor 2: GSKGPLDQLEKGGETAQSADPQWEQLNNKNLSMPLLPADFHKENTVTNDWIPEGEEDDDYLDLEKIFSEDDDYIDIVDSLSVSPTDSDVSAGNILQLFHGKSRIQRLNILNAKFAFNLYRVLKDQVNTFDNIFIAPVGISTAMGMISLGLKGETHEQVHSILHFKDFVNASSKYEITTIHNLFRKLTHRLFRRNFGYTLRSVNDLYIQKQFPILLDFKTKVREYYFAEAQIADFSDPAFISKTNNHIMKLTKGLIKDALENIDPATQMMILNCIYFKGSWVNKFPVEMTHNHNFRLNEREVVKVSMMQTKGNFLAANDQELDCDILQLEYVGGISMLIVVPHKMSGMKTLEAQLTPRVVERWQKSMTNRTREVLLPKFKLEKNYNLVESLKLMGIRMLFDKNGNMAGISDQRIAIDLFKHQGTITVNEEGTQATTVTTVGFMPLSTQVRFTVDRPFLFLIYEHRTSCLLFMGRVANPSRS", "Up or Down": "Up"}
{"experiment": "RRT study: LC-MS/MS urinary proteomics, AKI after cardiac surgery, RRT vs No RRT", "design": "species or system human", "conditions": "patients who did vs did not require RRT/dialysis; read with the Up or Down column"}
{"molecule": "Signal-regulatory protein beta-1 (protein, UniProt O00241 30-398, looked up) Signal-regulatory protein …: EDELQVIQPEKSVSVAAGESATLRCAMTSLIPVGPIMWFRGAGAGRELIYNQKEGHFPRVTTVSELTKRNNLDFSISISNITPADAGTYYCVKFRKGSPDDVEFKSGAGTELSVRAKPSAPVVSGPAVRATPEHTVSFTCESHGFSPRDITLKWFKNGNELSDFQTNVDPAGDSVSYSIHSTARVVLTRGDVHSQVICEIAHITLQGDPLRGTANLSEAIRVPPTLEVTQQPMRAENQANVTCQVSNFYPRGLQLTWLENGNVSRTETASTLIENKDGTYNWMSWLLVNTCAHRDDVVLTCQVEHDGQQAVSKSYALEISAHQKEHGSDITHEAALAPTAPLLVALLLGPKLLLVVGVSAIYICWKQKA", "Mean Fold Change": 1.442}
{"molecule": "Aminoacylase-1 (protein, UniProt Q03154 1-408, looked up) Aminoacylase-1: MTSKGPEEEHPSVTLFRQYLRIRTVQPKPDYGAAVAFFEETARQLGLGCQKVEVAPGYVVTVLTWPGTNPTLSSILLNSHTDVVPVFKEHWSHDPFEAFKDSEGYIYARGAQDMKCVSIQYLEAVRRLKVEGHRFPRTIHMTFVPDEEVGGHQGMELFVQRPEFHALRAGFALDEGIANPTDAFTVFYSERSPWWVRVTSTGRPGHASRFMEDTAAEKLHKVVNSILAFREKEWQRLQSNPHLKEGSVTSVNLTKLEGGVAYNVIPATMSASFDFRVAPDVDFKAFEEQLQSWCQAAGEGVTLEFAQKWMHPQVTPTDDSNPWWAAFSRVCKDMNLTLEPEIMPAATDNRYIRAVGVPALGFSPMNRTPVLLHDHDERLHEAVFLRGVDIYTRLLPALASVPALPSDS", "Mean Fold Change": 1.417}
